The values that follow come from patent publication US20250121090A1 (priority 2021, published 2025).

The data set can be described thus: general procedure: solution-phase peptide synthesis; PNP carbonate / PFP ester with DIPEA, HOAt. The following applies: conjugation step.

For “(2S,3S,4S,5R,6S)-6-(5-((5S,8S,11S,12R)-11-((S)-sec-butyl)-12-(2-((S)-2-((1R,2R)-3-(((1S,2R)-1-hydroxy-1-phenylpropan-2-yl)amino)-1-methoxy-2-methyl-3-oxopropyl)pyrrolidin-1-yl)-2-oxoethyl)-5,8-diisopropyl-4,10-dimethyl-3,6,9-trioxo-2,13-dioxa-4,7,10-triazatetradecyl)-2-((2S,5S,18R)-22-(2-((1,2-dimethylhydrazineyl)methyl)-1H-pyrrolo[2,3-b]pyridin-1-yl)-5-isopropyl-2-methyl-4,7,17,20-tetraoxo-18-(sulfomethyl)-10,13-dioxa-3,6,16,19-tetraazadocosanamido)phenoxy)-3,4,5-trihydroxytetrahydro-2H-pyran-2-carboxylic acid”, the conjugation yield turned out to be 75% yield.
As for “(2S,3S,4S,5R,6S)-6-(5-((5S,8S,11S,12R)-11-((S)-sec-butyl)-12-(2-((S)-2-((1R,2R)-3-(((1S,2R)-1-hydroxy-1-phenylpropan-2-yl)amino)-1-methoxy-2-methyl-3-oxopropyl)pyrrolidin-1-yl)-2-oxoethyl)-5,8-diisopropyl-4,10-dimethyl-3, 6,9-trioxo-2,13-dioxa-4,7,10-triazatetradecyl)-2-((2S,5S)-19-(2-((1,2-dimethylhydrazineyl)methyl)-1H-pyrrolo[2,3-b]pyridin-1-yl)-5-isopropyl-2-methyl-4,7,17-trioxo-10,13-dioxa-3,6,16-triazanonadecanamido)phenoxy)-3,4,5-trihydroxytetrahydro-2H-pyran-2-carboxylic acid”, the conjugation yield (over 2 steps) was 47% yield over 2 steps.
